{"source": "patent EP4559466A1", "about": "“MICROBIOTA SIGNATURE TO DETECT FOOD ADDICTION AND TREATMENT THEREOF” (Universitat Pompeu Fabra (UPF), priority 2023, dated 2025)", "tested_on": "C57BI/6J mice", "test": "Mouse food addiction operant protocol with prebiotics in drinking water", "assay_type": "in vivo", "conditions": "principal component analysis, position relative to nonaddicted control mice", "procedure": "Mice were trained to obtain chocolate-flavored pellets (n=59) in operant boxes during 98 sessions in 1 h-daily self-administration sessions. […] The food addiction-like behavior was evaluated during this operant conditioning maintained by food at a late period (82-92 sessions) to classify mice into the addictive phenotype considering three food addiction-like criteria (1) persistence of response, (2) motivation, and (3) compulsivity. […]\nAdditionally, four additional phenotypic traits were also evaluated as factors of vulnerability, impulsivity, cognitive inflexibility, appetitive and aversive cue-reactivity. • Impulsivity, the inability to stop a response once it is initiated, was measured as the number of non-reinforced active responses during the time-out period (10 s) after each pellet delivery. […] To signal the change in the schedule, the cue light was presented twice non-contingently and for 4 s. • Aversive cue-reactivity: To study the conditioning to an aversive stimulus (grid floor), non-reinforced active responses during the following session after the shock test were measured. […]", "data": [{"smiles": "C[C@@H]1OC(O)[C@H](O)[C@H](O)[C@H]1O", "note": "(stereo partly drawn) [rhamnose, (3R,4R,5R,6S)-6-methyloxane-2,3,4,5-tetrol]", "values": [{"measurement": "PCA clustering of addiction criteria and phenotypic traits", "result": "clustered together with the nonaddicted control mice"}]}, {"smiles": "OC[C@H]1O[C@@H](O[C@@H]2[C@@H](CO)OC(O)(CO)[C@H]2O)[C@H](O)[C@@H](O)[C@H]1O", "note": "(stereo partly drawn) [lactulose, 4-O-β-D-galactopyranosyl-D-fructofuranose, reference compound]", "values": [{"measurement": "PCA clustering of addiction criteria and phenotypic traits", "result": "cluster close to the nonaddicted control mice"}]}]}
